# Publication doi:10.1101/2023.01.16.524289
# Protein sequences, listed by entry. Tags and fused reporters are not part of them.
# UniProt P70372, whole entry: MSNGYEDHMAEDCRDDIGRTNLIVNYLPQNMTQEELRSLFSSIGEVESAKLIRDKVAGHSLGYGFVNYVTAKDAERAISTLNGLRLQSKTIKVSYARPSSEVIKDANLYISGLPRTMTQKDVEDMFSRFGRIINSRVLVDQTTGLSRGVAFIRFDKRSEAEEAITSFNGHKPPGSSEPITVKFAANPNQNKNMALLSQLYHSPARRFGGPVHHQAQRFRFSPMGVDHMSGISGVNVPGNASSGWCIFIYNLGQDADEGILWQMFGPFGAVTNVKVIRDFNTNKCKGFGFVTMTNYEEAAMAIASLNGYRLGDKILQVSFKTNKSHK
# The exact form of at least one protein or probe is not confirmed. At least one result comes from cells or an extract, where the contact may be indirect.
# Target: HuR (endogenous) (Mus musculus (RAW264.7 cells)) (UniProt P70372)
# Assay: pull-down, immunoblot
# Details: DMSO-treated cells, about 50% lower after 10 uM TM7nox; protein in an extract
sequence,measurement,value
AUUAUUUAUUAUUUAUUUAUUAUUUA [Bi-TNF ARE probe (26 nt)],binding result,binds
